Test results published in publication PMC2994555.
Results are given in words; binding and its absence hold for the method and conditions named. Binding seen in cells or lysates may run through a third protein. Some entries that bind do so weakly or less than the wild type.

Amino acid sequences for entries named in this document (tags omitted). Residues count along the entry.
UniProt Q92673, residues 82-2214: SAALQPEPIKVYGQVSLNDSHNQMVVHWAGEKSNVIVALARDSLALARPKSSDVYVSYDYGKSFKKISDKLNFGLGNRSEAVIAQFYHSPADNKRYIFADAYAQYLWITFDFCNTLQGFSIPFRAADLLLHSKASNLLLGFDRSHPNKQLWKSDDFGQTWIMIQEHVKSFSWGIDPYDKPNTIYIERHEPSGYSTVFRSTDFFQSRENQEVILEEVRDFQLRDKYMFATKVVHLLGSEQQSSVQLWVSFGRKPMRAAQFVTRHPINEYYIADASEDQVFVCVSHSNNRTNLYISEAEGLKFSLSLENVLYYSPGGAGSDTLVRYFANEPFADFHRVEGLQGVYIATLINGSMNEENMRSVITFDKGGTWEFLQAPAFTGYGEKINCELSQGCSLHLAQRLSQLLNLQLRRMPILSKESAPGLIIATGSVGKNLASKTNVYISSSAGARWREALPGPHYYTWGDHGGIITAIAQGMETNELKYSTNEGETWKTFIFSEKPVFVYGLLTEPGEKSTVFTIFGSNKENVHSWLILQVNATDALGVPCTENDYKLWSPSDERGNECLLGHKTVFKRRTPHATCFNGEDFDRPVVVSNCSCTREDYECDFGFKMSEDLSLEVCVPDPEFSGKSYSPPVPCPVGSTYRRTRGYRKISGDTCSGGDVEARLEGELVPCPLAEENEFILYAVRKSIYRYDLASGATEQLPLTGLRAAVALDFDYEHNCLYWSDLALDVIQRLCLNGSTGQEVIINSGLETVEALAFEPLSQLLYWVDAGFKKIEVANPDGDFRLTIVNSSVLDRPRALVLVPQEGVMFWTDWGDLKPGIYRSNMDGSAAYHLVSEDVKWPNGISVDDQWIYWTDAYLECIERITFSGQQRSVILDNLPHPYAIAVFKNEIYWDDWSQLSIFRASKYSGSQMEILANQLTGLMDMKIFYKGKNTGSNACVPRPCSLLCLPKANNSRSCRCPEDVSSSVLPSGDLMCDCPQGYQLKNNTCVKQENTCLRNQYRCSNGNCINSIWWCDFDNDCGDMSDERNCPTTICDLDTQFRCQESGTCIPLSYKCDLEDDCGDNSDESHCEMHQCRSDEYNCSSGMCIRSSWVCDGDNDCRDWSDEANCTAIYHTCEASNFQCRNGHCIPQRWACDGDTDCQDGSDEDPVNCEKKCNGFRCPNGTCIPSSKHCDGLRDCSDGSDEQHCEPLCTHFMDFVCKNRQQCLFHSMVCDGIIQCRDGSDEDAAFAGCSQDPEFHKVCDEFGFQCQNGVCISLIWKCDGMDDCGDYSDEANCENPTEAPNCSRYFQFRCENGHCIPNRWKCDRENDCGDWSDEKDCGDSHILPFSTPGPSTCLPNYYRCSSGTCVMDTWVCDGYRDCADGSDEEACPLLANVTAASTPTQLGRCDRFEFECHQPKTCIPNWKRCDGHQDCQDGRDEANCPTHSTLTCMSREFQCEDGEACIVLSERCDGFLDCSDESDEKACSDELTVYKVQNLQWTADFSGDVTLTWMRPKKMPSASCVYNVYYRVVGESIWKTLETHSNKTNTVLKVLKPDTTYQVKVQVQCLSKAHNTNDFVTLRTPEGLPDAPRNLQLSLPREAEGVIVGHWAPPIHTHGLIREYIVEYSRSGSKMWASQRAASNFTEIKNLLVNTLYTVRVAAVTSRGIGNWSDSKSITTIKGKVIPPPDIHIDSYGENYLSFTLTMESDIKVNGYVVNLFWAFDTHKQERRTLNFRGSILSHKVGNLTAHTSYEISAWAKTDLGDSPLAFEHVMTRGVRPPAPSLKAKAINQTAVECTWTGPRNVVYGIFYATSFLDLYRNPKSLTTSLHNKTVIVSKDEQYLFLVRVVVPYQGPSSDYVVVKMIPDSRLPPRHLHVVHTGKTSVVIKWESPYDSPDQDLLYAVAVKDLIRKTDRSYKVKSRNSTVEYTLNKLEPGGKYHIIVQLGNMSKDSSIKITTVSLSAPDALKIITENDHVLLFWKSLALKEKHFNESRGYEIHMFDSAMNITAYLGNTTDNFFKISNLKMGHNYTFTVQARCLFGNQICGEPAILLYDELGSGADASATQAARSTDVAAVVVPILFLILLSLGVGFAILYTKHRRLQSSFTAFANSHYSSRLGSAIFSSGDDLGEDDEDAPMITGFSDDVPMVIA

Columns and labels:
[1] = molecular target: SorLA expressed in HEK293T cells (UniProt Q92673); experiment: co-IP; HEK293T cotransfected with SorLA, APP695 and eGFP, 48 h; lysate (50 mM TrisHCl pH 7.5, 100 mM NaCl, 1 mM EDTA, 1% Nonidet P-40); IP with anti-APP C-terminus 369 or anti-SorLA N-terminus, pre-immune serum as control; blots with 369, anti-SorLA C-terminus and anti-GFP
[2] = molecular target: APP695 expressed in HEK293T cells (human) (UniProt P05067); experiment: as above

Row | binding [1] | binding [2] | Substance
1 | binds | – | APP695 expressed in HEK293T cells (from UniProt P05067-4 18-695)
2 | – | binds | SorLA expressed in HEK293T cells (from UniProt Q92673 82-2214) (receptor)
